Results: patent US9133237B2 (priority 2009, dated 2015)

Test: general procedure: solution-phase peptide synthesis; DCC/HOBt (coupling); HATU/diisopropyl ethyl amine (cyclisation)
Details: for step yield: late stage modification step

| Substance | step yield [%] | cyclisation yield (cyclisation step) [%] |
| --- | --- | --- |
| (3S,9S,14aR)-9-benzyl-3-(7-bromo-6-oxoheptyl)-6,6-dimethyldecahydropvrrolo[1,2-a][1,4,7,10]tetraazacyclododecine-1,4,7,10-tetraone | 75 | – |
| (3S,9S,14aR)-9-benzyl-3-(but-3-enyl)-6,6-dimethyl decahydropyrrolo[1,2-a][1,4,7,10]tetraazacyclododecine-1,4,7,10-tetraone | 74 | 74 |
| (3S,9S,14aR)-9-benzyl-6,6-dimethyl-3-(6-oxooctyl)decahydro-pyrrolo[1,2-a][1,4,7,10]tetraazacyclododecine-1,4,7,10-tetraone | 50 | – |
| (3S,9S,14aR)-9-benzyl-6,6-dimethyl-3-(7,7,7-trifluoro-6-oxoheptyl)-decahydropyrrolo[1,2-a][1,4,7,10]tetraazacyclododecine-1,4,7,10-tetraone | 49 | – |
| S-4-((3S,9S,14aR)-9-benzyl-6,6-dimethyl-1,4,7,10-tetraoxotetradeca-hydropyrrolo[1,2-a][1,4,7,10]tetraazacyclododecin-3-yl)butyl ethanethioate | 91 | – |
| S-7-((3S,9S,14aR)-9-benzyl-6,6-dimethyl-1,4,7,10-tetraoxotetradecahydropyrrolo[1,2-a][1,4,7,10]tetraazacyclododecin-3-yl)-2-oxoheptyl O-ethyl carbonodithioate | 60 | – |
| ethyl 8-((3S,9S,14aR)-9-benzyl-6,6-dimethyl-1,4,7,10-tetraoxotetra-decahydropyrrolo[1,2-a][1,4,7,10]tetraazacyclododecin-3-yl)-3-oxooctanoate | 52 | – |
